Molecular target: T1, C. elegans KCC-2 (Caenorhabditis elegans, UniProt G5EEC9)
T1 sequence (G5EEC9 1-1079): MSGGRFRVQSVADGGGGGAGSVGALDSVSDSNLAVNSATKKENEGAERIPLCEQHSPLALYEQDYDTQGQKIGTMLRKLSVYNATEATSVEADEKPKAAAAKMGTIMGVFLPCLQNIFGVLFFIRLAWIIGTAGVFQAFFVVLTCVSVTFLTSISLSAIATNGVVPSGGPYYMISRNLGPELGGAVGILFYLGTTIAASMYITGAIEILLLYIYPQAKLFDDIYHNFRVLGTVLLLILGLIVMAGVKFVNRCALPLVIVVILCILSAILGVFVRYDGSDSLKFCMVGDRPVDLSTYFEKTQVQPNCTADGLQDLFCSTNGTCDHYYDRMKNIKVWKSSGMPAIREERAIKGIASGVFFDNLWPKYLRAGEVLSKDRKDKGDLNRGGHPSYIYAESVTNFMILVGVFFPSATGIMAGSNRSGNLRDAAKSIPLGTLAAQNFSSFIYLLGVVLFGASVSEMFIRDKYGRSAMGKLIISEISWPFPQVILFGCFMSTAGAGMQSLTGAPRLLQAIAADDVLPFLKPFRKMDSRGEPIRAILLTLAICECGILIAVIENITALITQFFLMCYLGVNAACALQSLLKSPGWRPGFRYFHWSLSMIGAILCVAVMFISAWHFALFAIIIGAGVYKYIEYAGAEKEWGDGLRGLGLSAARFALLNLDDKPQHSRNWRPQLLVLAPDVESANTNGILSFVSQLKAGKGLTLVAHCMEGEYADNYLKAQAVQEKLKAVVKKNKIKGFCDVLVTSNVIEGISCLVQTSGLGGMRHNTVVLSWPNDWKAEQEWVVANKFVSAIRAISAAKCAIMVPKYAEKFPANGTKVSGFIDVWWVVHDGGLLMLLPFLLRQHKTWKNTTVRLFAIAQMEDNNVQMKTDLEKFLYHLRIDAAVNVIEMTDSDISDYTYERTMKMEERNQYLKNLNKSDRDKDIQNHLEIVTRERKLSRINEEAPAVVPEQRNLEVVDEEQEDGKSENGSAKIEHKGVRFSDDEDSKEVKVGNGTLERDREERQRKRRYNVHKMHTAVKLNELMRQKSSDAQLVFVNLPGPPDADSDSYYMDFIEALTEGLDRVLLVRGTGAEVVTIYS
Assay: […] influx into Xenopus oocytes
Assay type: cell-based

Compound: NS(=O)(=O)c1cc(C(=O)O)c(NCc2ccco2)cc1Cl [furosemide]
- IC50: 21 ± 4 µM

From article PMC2737711 (The Journal of neuroscience : the official journal of the …, 2009)
